# From patent publication US20200297015A1, “TRYPTOPHAN DERIVATIVES AS SWEETENERS” (CHROMOCELL CORPORATION, priority 2017, published 2020)
# Test system: perception of sweet taste in humans
# Assay: Descriptive Analysis (DA) sensory evaluation by trained panel, aqueous matrix
# Type: in vivo, human
# Conditions: 1500 ppm Compound 5 vs 500 ppm Rebaudioside M
# Description: The effect of the test compound on the perception of sweet taste in an aqueous matrix was evaluated using a descriptive analysis methodology with a group of trained panelists, as follows.
# Preparation of Samples for Sensory Taste Tests: • Control Sample: 500 ppm Rebaudioside M • Variant Sample: 1500 ppm Compound 5 Samples for the descriptive analysis taste test were prepared by dissolving, both the control and variant samples, directly in water at the desired test concentrations.
# The taste test panelists used in Example I were selected using a sensory acuity screening program and then trained in descriptive analysis taste testing. Candidate panelists were recruited, with prescreening and personal interviews, and were assessed for their ability to detect, recognize and differentiate basic taste attributes or mixtures thereof as part of a standardized acuity test. These candidate panelists were also assessed for their innate ability to identify flavors, and to rank on intensity scales. Other senses such as smell and vision were also included as part of the assessment. Candidates also were screened for their ability to use the language to describe and articulate ideas.
# The method was performed as a double blinded, randomized test, where trained Descriptive Analysis taste panelists (n≥12) profiled the maximum intensity perceived at 18 seconds, of the control sample and the variant sample for the following 3 attributes; sweet, bitter and sweet appearance time. In addition to the maximum intensity, the panelists continued to assess sweet and bitter intensity (at 1 min, 1.5 min, 2 min, and 3 min), to generate a discontinuous time scale Intensity profile (TSI) of sweet and bitter percepts to gain an understanding of the taste profile of the control and variant samples. Each panelist scored sweetness intensity on a 15 cm scale, with the control and variant sample being determined to be iso-sweet by ANOVA at 18 seconds.
smiles,measurement,setting,value
"Cc1ccc2[nH]cc(C[C@@H](N)C(=O)O)c2c1 [Compound 5, (R)-2-amino-3-(5-methyl-1H-indol-3-yl)propanoic acid]",Significantly Different? (by ANOVA),Bitter @ 18 sec,YES (bitter
same,Significantly Different? (by ANOVA),Bitter @ 1 min 30 s,YES (bitter linger
same,Significantly Different? (by ANOVA),Bitter @ 1 min,YES (bitter linger
same,Significantly Different? (by ANOVA),Bitter @2 min,YES (bitter linger
same,Significantly Different? (by ANOVA),Bitter @3 min,YES (bitter linger
same,Significantly Different? (by ANOVA),Sweet @ 18 sec,NO (isosweet)
same,Significantly Different? (by ANOVA),Sweet @ 1 min 30 s,YES (sweet linger
same,Significantly Different? (by ANOVA),Sweet @ 1 min,YES (sweet linger
same,Significantly Different? (by ANOVA),Sweet @ 2 min,NO (lower intensity)
same,Significantly Different? (by ANOVA),Sweet AT,YES (sweet AT
